Assay results: PubChem BioAssay AID720504 (National Center for Advancing Translational Sciences (NCATS), 2013)
In all, about 360,000 compounds went through this assay and about 10,000 (2.8%) were called active. The shares of active, inactive and inconclusive entries below differ from those in the screen. Calls follow the shape of the dose curve; as a rule, active = well fitted inhibition curve with a large enough effect; inconclusive = small, poorly fitted or top-dose-only effect; inactive = flat fitted curve, though single readings scatter. Potencies beside an inconclusive call are fits to weak or partial responses and may not hold up.

Protein sequences, listed by entry. Tags and fused reporters are not part of them.
UniProt P53350, whole entry, looked up: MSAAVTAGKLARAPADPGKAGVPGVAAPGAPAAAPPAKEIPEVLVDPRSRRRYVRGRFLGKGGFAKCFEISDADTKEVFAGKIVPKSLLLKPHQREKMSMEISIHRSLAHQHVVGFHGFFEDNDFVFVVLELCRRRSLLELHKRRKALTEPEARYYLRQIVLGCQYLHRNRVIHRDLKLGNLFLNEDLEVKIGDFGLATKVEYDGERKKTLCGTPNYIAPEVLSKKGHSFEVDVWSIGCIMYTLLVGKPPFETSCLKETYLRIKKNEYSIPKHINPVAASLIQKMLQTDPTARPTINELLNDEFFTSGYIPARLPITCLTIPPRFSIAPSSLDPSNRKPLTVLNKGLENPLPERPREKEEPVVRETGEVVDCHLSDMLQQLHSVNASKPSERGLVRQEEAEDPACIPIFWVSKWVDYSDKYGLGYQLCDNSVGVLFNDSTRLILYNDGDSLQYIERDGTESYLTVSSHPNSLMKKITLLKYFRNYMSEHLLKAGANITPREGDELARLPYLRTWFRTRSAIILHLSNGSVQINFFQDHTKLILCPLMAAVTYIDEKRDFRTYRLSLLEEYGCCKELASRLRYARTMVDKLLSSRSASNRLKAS

The molecules below were run against Serine/threonine-protein kinase PLK1 (Homo sapiens) (UniProt P53350) (assay: qHTS for Inhibitors of PLK1-PDB (polo-like kinase 1 - polo-box domain): Primary Screen). Details: Plk1 PBD binding of FITC phosphopeptide, fluorescence polarization.
Excerpt: The polo-like kinase 1 (Plk1) is a member of a conserved subfamily of serine / threonine protein kinases that plays a pivotal roles in cell proliferation. It has a C-terminal non-catalytic region called the polo-box domain (PBD) that plays a crucial role in the subcellular localization of the Plk1. […] Furthermore, depletion of the overexpressed Plk1 by RNAi efficiently induces apoptotic cell death in cancer and reduces tumor growth in mouse xenograft models. Thus, targeting Plk1 is an appealing strategy for anti-cancer therapy. Therefore, this project aimed to screen the Molecular Libraries Small Molecule Repository (MLSMR) using a novel approach to find inhibitors that target the Plk1 PBD instead of the conventional N-terminal catalytic domain. This project employed a fluorescence polarization (FP) assay using a FITC-conjugated phospho-9-mer (p-9-mer) peptide and purified human Plk1 PBD protein. The identified small molecule inhibitors of Plk1 PBD can then further be developed into useful tools for biomedical and clinical research that complements or replaces current relevant disease therapy. NIH Chemical Genomics Center [NCGC] NIH Molecular Libraries Probe Centers Network [MLPCN] MLPCN Grant: MH100728 Assay Submitter (PI): Kyung Lee, NCI
Four microliter of 25 nM FITC-p-9-mer + 60 nM Plk1 PBD in buffer solution (final concentrations 25 nM and 60 nM respectively) or 4 uL of 25 nM FITC-p-9-mer (final concentration 25 nM) in buffer will be dispensed into a 1,536 Greiner medium-binding black solid plate. Small molecules at final concentrations of 18 nM to 57 uM and positive control phospho-9-mer (sequence: Ac-PPLHSpTAI-NH2) at final concentrations 26 nM to 57 uM and phospho-13-mer (sequence: Ac-[…]pTAI-NH2) at final concentrations of 1 nM to 2.3 uM will be pin-transferred (23 nL) to the plate via a Kalypsys pin-tool robotics equipped with a 1,536-pin array. The reaction plate will be centrifuged for 1 min at 1000 rpm and incubated at room temperature for 10 min. The FITC fluorescence signals will be read using the PerkinElmer ViewLux plate reader at 480 / 20 nm excitation and 540 / 20 nm S and P polarization emission wavelengths. Reagent bottles will be kept submerged into 4 °C recirculating chiller bath and all liquid lines will be covered with aluminum foil to minimize degradation. Library plates will be screened starting from the lowest to the highest concentrations to minimize compound carryover. Vehicle only plates, with DMSO being pin-transferred instead of compound solutions, will be included regularly throughout the screen to record any systematic shifts in assay signal.
% is scaled to controls: 0 for no effect and ±100 for the full control effect; potency is read from the fitted curve at half-maximal effect.
Also: nearly all actives have a fitted effect of over 65% in size.
For max response, negative = inhibition in this document: series mostly up to about 57 µM.

Row | Compound | max response, negative = inhibition | Potency
1 | Cc1ccc(C(=O)N2CC2C)cc1 (stereo not drawn) | inactive: -8.04% | –
2 | CN1C(=O)C(Cc2ccsc2)C(=O)N(C)C1=O | – | inconclusive: 23.8 µM [inhibitor, partial curve]
3 | CN(C)CCSC1c2ccccc2CSc2ccccc21 (stereo not drawn) | – | inconclusive: 18.9 µM [inhibitor, partial curve]
4 | Cc1ccc(/C=C/C(=O)C2C(=O)c3ccccc3C2=O)cc1 | – | inconclusive: 23.8 µM [inhibitor, partial curve]
5 | CCOc1cc(-c2c(C#N)c(=O)[nH]c3c2c(C)nn3-c2ccc(F)cc2)ccc1O | – | inconclusive: 23.8 µM [inhibitor, single point]
6 | COc1ccc(C#Cc2ccc3c(c2)O[C@H](CN(C)C(C)=O)[C@H](C)CN([C@@H](C)CO)S3(=O)=O)cc1 | – | active: 23.8 µM
7 | CCCCCCC(=O)N/N=C/c1c(O)n(CCc2ccccc2)c(=O)[nH]c1=O | inactive: 3.92% | –
8 | CC(C)[C@H]1C(=O)N2CCC[C@H]2[C@]2(O)O[C@](NC(=O)[C@@H]3C=C4c5cccc6[nH]cc(c56)C[C@H]4N(C)C3)(C(C)C)C(=O)N12 | – | inconclusive: 26.7 µM [inhibitor, partial curve]
9 | O=C(C1CCCCC1)N1CCC(c2nc3c(nnn3Cc3c(F)cccc3Cl)c(=O)[nH]2)CC1 | – | inconclusive: 23.8 µM [inhibitor, single point]
10 | O=C1NC(=O)N(c2ccc3c(c2)OCO3)C(=O)/C1=C\c1ccc(-c2ccccc2C(=O)O)o1 | – | active: 2.99 µM
11 | C=CCSc1nc2c(c(-c3ccsc3)c1C#N)CN(C)CC2 | – | inconclusive: 26.7 µM [inhibitor, partial curve]
12 | Cc1cccc(OCC(=O)N2CCN(Cc3cccnc3)CC2)c1 | inactive: 11.3% | –
13 | O=C(O)COc1ccc(Cl)cc1Cl | – | inconclusive: 29.9 µM [inhibitor, partial curve]
14 | COc1ccc(CCn2c(NN=C3CCCC3)nc3c2c(=O)[nH]c(=O)n3C)cc1 | – | inconclusive: 21.2 µM [inhibitor, single point]
15 | CCOC(=O)C(NS(=O)(=O)c1ccc(C)cc1)(C(F)(F)F)P(=O)(OCC(C)C)OCC(C)C (stereo not drawn) | – | inconclusive: 37.7 µM [inhibitor, single point]
16 | Cc1ccc(N2C(=O)NC(=O)/C(=C\c3cc(C)n(-c4ccc(C(=O)O)cc4)c3C)C2=O)cc1 | – | inconclusive: 23.8 µM [inhibitor, single point]
17 | FC(F)(F)c1ccccc1N1CC1c1ccncc1 (stereo not drawn) | inactive: -0.0699% | –
18 | O=C(Nc1ccc(Br)cc1C(=O)O)c1ccc2c(c1)C(=O)N(Cc1ccccc1)C2=O | – | inconclusive: 21.2 µM [inhibitor, partial curve]

Some of these compounds in order of length of the SMILES, rising.
Row | Compound | max response, negative = inhibition | Potency
1 | Cc1ccc(C(=O)N2CC2C)cc1 (stereo not drawn) | inactive: -8.04% | –
3 | CN(C)CCSC1c2ccccc2CSc2ccccc21 (stereo not drawn) | – | inconclusive: 18.9 µM [inhibitor, partial curve]
4 | Cc1ccc(/C=C/C(=O)C2C(=O)c3ccccc3C2=O)cc1 | – | inconclusive: 23.8 µM [inhibitor, partial curve]
